Results are given in words; binding and its absence hold for the method and conditions named. In cells and extracts the contact can be indirect. Binding can be weak; no strength is given. Sequences can lack the tags named with a protein.
Molecular target: T1, synaptotagmin 13 (SYT13), endogenous in human brain (human (endogenous in brain tissue)) (UniProt Q7L8C5)
T1 sequence: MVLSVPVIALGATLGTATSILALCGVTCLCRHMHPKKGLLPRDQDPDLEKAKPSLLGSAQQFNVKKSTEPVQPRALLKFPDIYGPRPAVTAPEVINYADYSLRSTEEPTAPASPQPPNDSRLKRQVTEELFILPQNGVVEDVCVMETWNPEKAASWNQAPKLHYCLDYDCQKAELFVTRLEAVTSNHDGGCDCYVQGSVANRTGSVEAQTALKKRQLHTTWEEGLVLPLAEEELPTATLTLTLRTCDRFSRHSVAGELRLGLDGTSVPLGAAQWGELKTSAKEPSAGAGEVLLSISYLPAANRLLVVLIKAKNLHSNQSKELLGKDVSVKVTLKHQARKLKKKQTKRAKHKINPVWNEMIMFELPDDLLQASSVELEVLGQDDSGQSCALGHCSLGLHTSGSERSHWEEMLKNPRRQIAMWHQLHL
Test: co-IP; human temporal lobe homogenates (DLB, MSA, controls); IP with anti-SYT13 antibody (MBS9606007), immunoblot

binding: binds
Substance: Syntaxin, endogenous in human brain

From paper PMC12183919
